# Measurements from article PMC7565722.
# By UniProt entry, the sequences of proteins in these tests, tags left out.
# UniProt O60260: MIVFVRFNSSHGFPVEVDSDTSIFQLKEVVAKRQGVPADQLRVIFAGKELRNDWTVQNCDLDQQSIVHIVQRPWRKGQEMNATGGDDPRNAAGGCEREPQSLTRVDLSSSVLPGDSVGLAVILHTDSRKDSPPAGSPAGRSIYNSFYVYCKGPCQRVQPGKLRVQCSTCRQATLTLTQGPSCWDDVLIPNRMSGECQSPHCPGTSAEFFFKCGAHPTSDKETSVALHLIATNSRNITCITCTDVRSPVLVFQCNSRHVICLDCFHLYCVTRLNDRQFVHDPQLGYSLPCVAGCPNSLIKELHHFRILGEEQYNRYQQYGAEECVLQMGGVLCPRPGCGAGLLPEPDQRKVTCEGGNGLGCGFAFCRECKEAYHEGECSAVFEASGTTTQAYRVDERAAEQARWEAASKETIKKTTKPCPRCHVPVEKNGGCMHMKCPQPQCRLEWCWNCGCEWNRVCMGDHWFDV
# UniProt Q07812: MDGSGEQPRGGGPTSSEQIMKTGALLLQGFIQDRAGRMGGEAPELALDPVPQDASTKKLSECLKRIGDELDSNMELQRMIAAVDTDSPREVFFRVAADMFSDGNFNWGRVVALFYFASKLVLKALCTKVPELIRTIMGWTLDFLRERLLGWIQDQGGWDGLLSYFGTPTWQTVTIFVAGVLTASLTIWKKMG
# Results are given in words; binding and its absence hold for the method and conditions named. In cells and extracts the contact can be indirect. Some entries that bind do so weakly or less than the wild type.
# Target: Parkin (human (endogenous in HCT116)) (UniProt O60260)
# Assay: co-IP; lysates of HCT116 shMock and shRomo1 stable cells, and of HCT116 cells transfected with Flag-Romo1; immunoprecipitated with IgG or Parkin antibody overnight at 4 °C, protein G PLUS-Agarose beads 1 h at 4 °C; immunoblot for Bax
substance,measurement,value
BCL-2-associated X protein (Bax) (from UniProt Q07812 1-192),binding,binds
